Results from publication PMC10469627, “Molecular basis of the glycosomal targeting of PEX11 and its mislocalization to mitochondrion in trypanosomes” (Frontiers in Cell and Developmental Biology, 2023).
These are yes or no findings as the source states them, for the method shown. Some binding calls cover weakened binding; strength is not graded here. Sequences can lack the tags named with a protein.

Assays:
Assay in all cases: two-hybrid; GAL4 BD-HsPEX11 N-terminal constructs (pPC97) and GAL4 AD-HsPEX19 (pPC86) co-transformed in Δpex19 PCY2; colony-lift filter assay and liquid ONPG assay, three replicates; ScPEX14-ScPEX17 as positive control
[1] = biological target: T1, GAL4 BD-HsPEX11_(1-73aa) (PEX11α) (human) (UniProt O75192)
T1 sequence: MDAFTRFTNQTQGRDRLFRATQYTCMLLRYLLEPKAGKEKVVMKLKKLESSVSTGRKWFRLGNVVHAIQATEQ

[2] = biological target: T2, GAL4 BD-HsPEX11_(1-73aa) (PEX11β) (human) (UniProt O96011)
T2 sequence: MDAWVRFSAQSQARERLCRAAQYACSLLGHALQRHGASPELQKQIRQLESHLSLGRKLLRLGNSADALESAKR

[3] = biological target: T3, GAL4 BD-ScPEX17_(167-199aa) (S. cerevisiae) (UniProt P40155)
T3 sequence: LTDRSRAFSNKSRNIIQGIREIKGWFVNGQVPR

B1: GAL4 AD-HsPEX19 (protein, UniProt P40855 1-299)
chain: MAAAEEGCSVGAEADRELEELLESALDDFDKAKPSPAPPSTTTAPDASGPQKRSPGDTAKDALFASQEKFFQELFDSELASQATAEFEKAMKELAEEEPHLVEQFQKLSEAAGRVGSDMTSQQEFTSCLKETLSGLAKNATDLQNSSMSEEELTKAMEGLGMDEGDGEGNILPIMQSIMQNLLSKDVLYPSLKEITEKYPEWLQSHRESLPPEQFEKYQEQHSVMCKICEQFEAETPTDSETTQKARFEMVLDLMQQLQDLGHPPKELAGEMPPGLNFDLDALNLSGPPGASGEQCLIM
- binding [1]: no binding
- binding [2]: binds

B2: GAL4 AD-ScPEX14 (protein, UniProt P53112 1-341)
chain: MSDVVSKDRKALFDSAVSFLKDESIKDAPLLKKIEFLKSKGLTEKEIEIAMKEPKKDGIVGDEVSKKIGSTENRASQDMYLYEAMPPTLPHRDWKDYFVMATATAGLLYGAYEVTRRYVIPNILPEAKSKLEGDKKEIDDQFSKIDTVLNAIEAEQAEFRKKESETLKELSDTIAELKQALVQTTRSREKIEDEFRIVKLEVVNMQNTIDKFVSDNDGMQELNNIQKEMESLKSLMNNRMESGNAQDNRLFSISPNGIPGIDTIPSASEILAKMGMQEESDKEKENGSDANKDDNAVPAWKKAREQTIDSNASIPEWQKNTAANEISVPDWQNGQVEDSIP
- binding [3]: binds
